The values that follow are results of earlier work, collected in patent publication US20040265381A1, “Anti-asthmatic drug (asmakure) from indigenous herbs to cure the disease asthma” (priority 2001, published 2004).

For this data set the following is noted: following oral administration.

The structures appear in SMILES notation.

As for `CCN(CC)CC#CCOC(=O)C(O)(c1ccccc1)C1CCCCC1.Cl` (stereo not drawn) [Oxybutynin, α-cyclohexyl-α-hydroxybenzeneacetic acid 4-(diethylamino)-2-butynyl ester hydrochloride], the duration of action result was “three to six hours”.
